Measurements: article PMC7819943, “Rice protein-binding microarrays: a tool to detect cis-acting elements near promoter regions in rice”
The list shows a part of the results.

Amino acid sequences for entries named in this document (tags omitted).
UniProt Q0JBA9, entry or part of it: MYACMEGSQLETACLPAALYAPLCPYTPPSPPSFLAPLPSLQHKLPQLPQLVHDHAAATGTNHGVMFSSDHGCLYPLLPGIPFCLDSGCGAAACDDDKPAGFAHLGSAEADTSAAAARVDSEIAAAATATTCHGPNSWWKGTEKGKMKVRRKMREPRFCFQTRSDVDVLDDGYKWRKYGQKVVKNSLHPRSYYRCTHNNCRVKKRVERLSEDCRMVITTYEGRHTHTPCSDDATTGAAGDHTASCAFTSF

molecular target: OsWRKY34 (Oryza sativa, UniProt Q0JBA9 1-250); experiment: protein-binding microarray (RPBM); PBS, 2% BSA, 51.3 ng/ul salmon testes DNA, 50 uM zinc acetate, 200 nM TF, 25 C, 1 h; high values mean tight binding; conditions: protein: recombinant; tags: N-terminal polyhistidine and DsRed monomer fusion (pET32a); label: CyDye5-dUTP incorporated in the synthesized complementary strand; 3' TTTTT single-stranded linker to array surface; dsDNA, one strand shown
Outline: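 Transcription factors were each fused at the N-terminus to a polyhistidine tag plus DsRed and expressed in E. coli BL21-CodonPlus before Ni–NTA purification. Binding to a double-stranded custom Agilent array was carried out with 200 nM protein at 25 °C for 1 h in PBS, 2% BSA, salmon testes DNA and 50 µM zinc acetate. The binding signal is per-feature fluorescence intensity, in arbitrary units, on an Axon 4000B scanner.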

Question: “AAAATCTCTGAAACCCAACTTCTCTAGCTTCTGGCTTCTTCGGAGTCACCTAGTGCAG” was tested. Which binding signal did it give?
Answer: 8520 fluorescence intensity (a.u.)

Question: “GGTGGCGTTTCGTTCCGTTGGCGGCGGGCGGAGGTGATTGCGGAGTCACCTAGTGCAG” was tested. Which binding signal did it give?
Answer: 9630 fluorescence intensity (a.u.)

Question: How did the binding signal turn out when “AGAGTGGGAACGTGATGGGTCTTGGGGCTTTTGCCGCCAACGGAGTCACCTAGTGCAG” was run?
Answer: 8190 fluorescence intensity (a.u.)

Question: Which binding signal does the source give for “TTTCGATCCGATCCCTGCTATTTTATCTTTGCTCCTTTTACGGAGTCACCTAGTGCAG” here?
Answer: 13700 fluorescence intensity (a.u.)

Question: With “CATCATCGGCCACTGTTTATATAACTTTTGTTTTTTTAATCGGAGTCACCTAGTGCAG” as the sequence, how does the binding signal read?
Answer: 11900 fluorescence intensity (a.u.)

Question: “AACGGTACCATCACCATCATTTATCATGGGCACAACTTGCCGGAGTCACCTAGTGCAG” was tested. Which binding signal did it give?
Answer: 8810 fluorescence intensity (a.u.)

Question: For “CTCGACCTCTCTTCCTTATGCTCTTCTGCAAGCTGTCGCACGGAGTCACCTAGTGCAG”, which binding signal is on record?
Answer: 8520 fluorescence intensity (a.u.)

Question: Which binding signal does the source give for “CCTTCCCAGCCGTCTCGTCTCTCTCTCTCTCTCTCAAAAACGGAGTCACCTAGTGCAG” here?
Answer: 9380 fluorescence intensity (a.u.)

Question: How did the binding signal turn out when “ATCGCCTGCCATGTTTGGTCCTTCTGATCCCAGCTTGGTTCGGAGTCACCTAGTGCAG” was run?
Answer: 8090 fluorescence intensity (a.u.)

Question: Which binding signal does the source give for “GCTGTCCCTATATACACAACATTTGACCAAGATGATGACGCGGAGTCACCTAGTGCAG” here?
Answer: 10300 fluorescence intensity (a.u.)

Question: Which binding signal does the source give for “CTACCACTGCCTCAAACCTTTCGTCTCGTCTCGTGTTTGACGGAGTCACCTAGTGCAG” here?
Answer: 9630 fluorescence intensity (a.u.)

Question: Which binding signal does the source give for “TTTTTTAAAATACAATCCTTTTACTGTGGCTGTTTGTAACCGGAGTCACCTAGTGCAG” here?
Answer: 9640 fluorescence intensity (a.u.)

Question: For “CCACTTTGACCACCGCCGCCCCGCCGGCTTCGCACGCCATCGGAGTCACCTAGTGCAG”, which binding signal is on record?
Answer: 10000 fluorescence intensity (a.u.)

Question: With “AATCATTCCGTTCAGTTATATCTGCTCGTTGCTCGTTGATCGGAGTCACCTAGTGCAG” as the sequence, how does the binding signal read?
Answer: 12600 fluorescence intensity (a.u.)

Question: “GTTTAAAGTTAGACCACATGCTTATTCTTTGTAACTTGCTCGGAGTCACCTAGTGCAG” was tested. Which binding signal did it give?
Answer: 9730 fluorescence intensity (a.u.)

Question: “ACGGTGTGTCTCTAGATTTTCTTCTTTAATTAGTTTGTGTCGGAGTCACCTAGTGCAG” was tested. Which binding signal did it give?
Answer: 8220 fluorescence intensity (a.u.)

Question: Which binding signal does the source give for “TCCTTCGTCGCCTTCCGCCGCTACTCGATCAGCAGCTCAGCGGAGTCACCTAGTGCAG” here?
Answer: 8570 fluorescence intensity (a.u.)

Question: How did the binding signal turn out when “CCCTCGTCTCCGTCCTACTCGTACCTTCTAGATCATCATCCGGAGTCACCTAGTGCAG” was run?
Answer: 10600 fluorescence intensity (a.u.)

Question: “CTCTATCTGCTCGGCCTATCTCTCTTCGCCTCAGCCCATACGGAGTCACCTAGTGCAG” was tested. Which binding signal did it give?
Answer: 9340 fluorescence intensity (a.u.)

Question: How did the binding signal turn out when “CTGGTGTGAATAAAGCTCTTTGGAAATTTTAGTGGTAATTCGGAGTCACCTAGTGCAG” was run?
Answer: 8030 fluorescence intensity (a.u.)

Question: How did the binding signal turn out when “TAGTGTAGGATTTCAATTCATTTGTTTTTCCTCCATTTATCGGAGTCACCTAGTGCAG” was run?
Answer: 8280 fluorescence intensity (a.u.)

Question: Which binding signal does the source give for “CGACCCGGCCTCTCGCTCTCGTTGCCTTTCTTTCGCGCTCCGGAGTCACCTAGTGCAG” here?
Answer: 10600 fluorescence intensity (a.u.)

Question: How did the binding signal turn out when “ACATGCGTACTGTACATGTAACTACGACTTGTTGTCTGTCCGGAGTCACCTAGTGCAG” was run?
Answer: 10100 fluorescence intensity (a.u.)

Question: How did the binding signal turn out when “TCCTGCGCGCGCTCATCAGTATTCAGTATCCGTCACTCCGCGGAGTCACCTAGTGCAG” was run?
Answer: 8420 fluorescence intensity (a.u.)

Question: For “ACCGGGCATTCTCATCGGATCCATACAGCCCTAGCTAGCACGGAGTCACCTAGTGCAG”, which binding signal is on record?
Answer: 9960 fluorescence intensity (a.u.)

Question: How did the binding signal turn out when “AAGCGTACTCCTTCCCTGCAGCTGCTTCCATCAATACAATCGGAGTCACCTAGTGCAG” was run?
Answer: 10100 fluorescence intensity (a.u.)

Question: “GTCGATTCGCGTCACGTCAGTAGGTGGACTTAATTTGTTGCGGAGTCACCTAGTGCAG” was tested. Which binding signal did it give?
Answer: 8100 fluorescence intensity (a.u.)

Question: For “CTCGACGCCTCCACGGAATCGTCGCTGCATCTCCATTCCTCGGAGTCACCTAGTGCAG”, which binding signal is on record?
Answer: 8120 fluorescence intensity (a.u.)

Question: “ACACGACTCTACTCGATTCGACCGTTCCGCCGCTTCCGCACGGAGTCACCTAGTGCAG” was tested. Which binding signal did it give?
Answer: 11300 fluorescence intensity (a.u.)

Question: With “GCCGTTGTTTTCGCAGCAGCGGCGGCGGCGGCGGTGGCGGCGGAGTCACCTAGTGCAG” as the sequence, how does the binding signal read?
Answer: 8750 fluorescence intensity (a.u.)

Question: How did the binding signal turn out when “TGTCCCCTACCCCAGTTTAGCCGTCCTGCTGGCCTCACATCGGAGTCACCTAGTGCAG” was run?
Answer: 9400 fluorescence intensity (a.u.)

Question: Which binding signal does the source give for “GTTTAGATTCAAAAATTTTTCTTCAAACTTTTACTTTTTCCGGAGTCACCTAGTGCAG” here?
Answer: 9270 fluorescence intensity (a.u.)

Question: For “AAAGTGTTTGGTACTTTGGTTTGGGGAGCTTGTTTGCCGACGGAGTCACCTAGTGCAG”, which binding signal is on record?
Answer: 8460 fluorescence intensity (a.u.)

Question: How did the binding signal turn out when “CGCAGCCACCGCCGCCGCCGCCTCGTCGCCAGGCACCGCGCGGAGTCACCTAGTGCAG” was run?
Answer: 9060 fluorescence intensity (a.u.)

Question: “CTCGCATGCTGCGCGCCTTCGTCGACGCTCACAACCGCGGCGGAGTCACCTAGTGCAG” was tested. Which binding signal did it give?
Answer: 8310 fluorescence intensity (a.u.)

Question: “GCCACGAAACTGCCGCTTTCCTCGTCGCCGGTGCCGGCGCCGGAGTCACCTAGTGCAG” was tested. Which binding signal did it give?
Answer: 9760 fluorescence intensity (a.u.)

Question: “AATCCCCGCACGCGTCTTTACTTCGCCTTCGTCTTTCCTCCGGAGTCACCTAGTGCAG” was tested. Which binding signal did it give?
Answer: 9340 fluorescence intensity (a.u.)

Question: “TCGACTAAATTACCCGCGCTATTACTGTACCGTGCGTCGACGGAGTCACCTAGTGCAG” was tested. Which binding signal did it give?
Answer: 9640 fluorescence intensity (a.u.)

Question: With “GACACCGCCCCGTCGAGCGCCCGGTCCTTCACCCACTTCACGGAGTCACCTAGTGCAG” as the sequence, how does the binding signal read?
Answer: 9950 fluorescence intensity (a.u.)

Question: How did the binding signal turn out when “GACTCGACTCTTATCTGTGTGGGCCGTCGTCGTCTTCAACCGGAGTCACCTAGTGCAG” was run?
Answer: 9790 fluorescence intensity (a.u.)

Question: For “TGCACTAGTATGTATGACGTTGACTGTTTTTTTAAGGACGCGGAGTCACCTAGTGCAG”, which binding signal is on record?
Answer: 10200 fluorescence intensity (a.u.)

Question: How did the binding signal turn out when “TATAACTTTATCTAGTTTGTTTAGACCTCATTGCTATTTCCGGAGTCACCTAGTGCAG” was run?
Answer: 9950 fluorescence intensity (a.u.)
